Data on 1 substance can be found in patent US12642841.

Amino acid sequences for entries named in this document (tags omitted). A change or cut given only in a name is not applied to a line headed by its entry.
UniProt P01215: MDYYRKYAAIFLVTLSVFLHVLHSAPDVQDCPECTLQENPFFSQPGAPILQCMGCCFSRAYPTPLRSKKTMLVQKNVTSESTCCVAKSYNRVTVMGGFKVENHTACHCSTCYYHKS

Results are given in words; binding and its absence hold for the method and conditions named. Some binding calls cover weakened binding; strength is not graded here.

This experiment addresses T1, FSHR on Sertoli cells of prepubescent Large-White piglets (pig (piglets, Large-White breed)) (UniProt P49059).
T1 sequence (looked up): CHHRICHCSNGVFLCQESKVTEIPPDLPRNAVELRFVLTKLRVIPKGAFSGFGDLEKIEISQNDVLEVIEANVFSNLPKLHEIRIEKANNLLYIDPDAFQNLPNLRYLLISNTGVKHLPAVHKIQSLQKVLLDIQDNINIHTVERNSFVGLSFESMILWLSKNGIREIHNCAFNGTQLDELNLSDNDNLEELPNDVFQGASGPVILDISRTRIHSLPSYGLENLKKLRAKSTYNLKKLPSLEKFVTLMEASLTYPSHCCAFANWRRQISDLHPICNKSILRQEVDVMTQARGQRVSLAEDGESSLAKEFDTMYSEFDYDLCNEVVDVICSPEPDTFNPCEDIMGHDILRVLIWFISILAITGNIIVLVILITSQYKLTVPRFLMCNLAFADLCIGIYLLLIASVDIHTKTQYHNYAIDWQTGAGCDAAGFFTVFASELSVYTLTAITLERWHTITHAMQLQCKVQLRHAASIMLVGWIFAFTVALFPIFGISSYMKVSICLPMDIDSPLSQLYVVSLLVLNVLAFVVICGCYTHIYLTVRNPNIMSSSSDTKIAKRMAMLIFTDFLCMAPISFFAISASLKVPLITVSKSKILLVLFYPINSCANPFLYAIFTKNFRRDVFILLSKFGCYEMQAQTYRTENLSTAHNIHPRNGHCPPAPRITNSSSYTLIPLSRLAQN
Put plainly: estradiol production in piglet Sertoli cells.

Take “Gonal-F® (recombinant FSH-based commercial preparation) (from UniProt P01215 25-116; P01225 19-129) (ligand)”: the binding entry is “binds”.
